PubChem BioAssay AID1487 (National Center for Advancing Translational Sciences (NCATS), 2009)
Values joined by “and” are separate entries in the source; they are usually repeats but may differ in a detail not shown here. Equal entries are not always repeated. The list shows a part of the results. These are further read-outs of the screen, such as a control signal, another cell line or another target. No call is given for them. Compounds called inactive in the main read-out are mostly missing here. The note in brackets gives the kind of curve behind each potency; many fits are weak.

Assay: qHTS Assay for Modulators of Lamin A Splicing
Conditions: HeLa LMNA splicing GFP/RFP minigene ratio, 48 h
Method in brief: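 Read-out is the ratio of GFP to DsRed2 object intensity, acquired by 488 nm laser-scanning cytometry on HeLa lamin A-EGFP minigene reporter cells. Compound incubation 48 hrs at 37 °C in Opti-MEM with 2% FBS; DMSO 0.5% final.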

[1] = measured here: GFP splicing reporter channel
[2] = measured here: RFP viability control channel

SMILES | AC50 [1] | AC50 [2]
COc1ccc(S(=O)(=O)Nc2ccccc2C(=O)NCc2ccco2)cc1Br | 0.282 µM [rising, full curve, poor fit] | 
O=C(NCc1ccncc1)c1ccc(Cl)c(S(=O)(=O)N2CCOCC2)c1 | 20 µM [rising, single point] | 
COc1cccc(NC(=O)CN2CCN(c3nc(-c4cccc(OC)c4)cs3)CC2)c1 | 0.891 µM [rising, full curve, poor fit] | 17.8 µM [rising, partial curve]
COc1ccc(O)c(C(c2c(C)[nH][nH]c2=O)c2c(C)[nH][nH]c2=O)c1 | 0.251 µM [falling, full curve, poor fit] | 
N#Cc1cccc(-c2nc(NCc3cccs3)c3ccccc3n2)c1 | 11.2 µM [falling, partial curve] | 17.8 µM [falling, single point]
CC(=O)Nc1ccccc1C(=O)C(=O)Nc1ccc(C)c(C)c1 |  | 35.5 µM [rising, single point]
O=C(Cc1ccc(Cl)cc1)NC1CC1 |  | 11.2 µM [rising, partial curve, poor fit]
CCCCCOc1ccc(C(=O)NCC2(c3ccccc3)CCOCC2)cc1 | 11.2 µM [falling, single point] | 12.6 µM [falling, partial curve, poor fit]
CC(C)c1ccc(C(=O)NCCCN2CCN(CCCNC(=O)c3ccc(C(C)C)cc3)CC2)cc1 | 20 µM [rising, single point] | 35.5 µM [rising, single point]
Cc1sc2ncnc(SCC(=O)c3cccs3)c2c1C |  | 35.5 µM [rising, single point]
COC(c1ccccc1)c1nnc(CCC(=O)NC2C3CC4CC(C3)CC2C4)o1 (stereo not given) |  | 0.01 µM [falling, full curve, poor fit]
O=C(Nc1nc(-c2ccc(Br)cc2)cs1)c1cccnc1 | 0.0316 µM [rising, partial curve, poor fit] | 0.00447 µM [rising, full curve, poor fit]
CC(C)(C)c1cc(C(=O)N/N=C/c2ccc(F)cc2)n(-c2ccccc2)n1 |  | 10 µM [rising, partial curve]
Cc1nc(SCC(C)C)[nH]c(=O)c1Cc1ccccc1 | 0.00447 µM [rising, full curve, poor fit] | 35.5 µM [rising, partial curve, poor fit]
CCc1nc2c(sc3nc4c(cc32)COC(C)(C)C4)c(=O)n1CCN(CC)CC |  | 0.631 µM [rising, full curve]
Cc1ccc(-c2csc3ncn(-n4c(C)ccc4C)c(=O)c23)o1 |  | 15.8 µM [falling, partial curve, poor fit]
c1coc(CNc2nc3sc4c(c3c3ncnn23)CCCC4)c1 | 35.5 µM [rising, single point] | 35.5 µM [rising, single point]
COc1ccc(NC(=O)/C(Cl)=C(/Cl)S(=O)Cc2ccc(C)cc2)cn1 (stereo not given) | 0.794 µM [falling, full curve] | 12.6 µM [falling, partial curve]
N#CC1=C(c2ccccc2)/C(=C/c2ccccc2)OC1=O | 11.2 µM [falling, partial curve] | 17.8 µM [falling, partial curve]
CC(=O)N1CCc2cc(S(=O)(=O)NCCC(=O)NC3CCCc4ccccc43)ccc21 (stereo not given) |  | 15.8 µM [rising, single point]
O=S(=O)(c1ccc(Cl)cc1)c1snnc1-c1ccccc1 | 35.5 µM [falling, single point] | 20 µM [falling, single point]
CSc1cccc(NC(=O)CCCOc2ccc(Cl)cc2Cl)c1 | 31.6 µM [rising, single point] | 31.6 µM [rising, single point]
Cn1cc(CNCc2cnc3ccccn23)c(-c2ccc(Oc3ccccc3)cc2)n1 | 6.31 µM [falling, partial curve] | 3.16 µM [falling, full curve, poor fit]
COc1cc(NS(=O)(=O)c2ccc(NC(C)=O)cc2)cc(OC)c1 |  | 10 µM [rising, partial curve]
CCNc1ccc(P(=O)(c2ccccc2)c2ccccc2)cc1 |  | 0.00316 µM [falling, full curve, poor fit]
Cc1ccc(C)n1NC(=O)c1ccccc1[N+](=O)[O-] | 2.51 µM [falling, single point] | 
CNC(=O)c1c(NC(=O)c2nc3ccccc3s2)sc2c1CCC2 |  | 35.5 µM [rising, single point]

SMILES | AC50 [1] | AC50 [2]
COc1cccc(-c2cc(C(F)(F)F)c3c(N)c(C#N)sc3n2)c1 | 0.562 µM [rising, full curve, poor fit] | 
O=C(CNc1cc(S(=O)(=O)N2CCCC2)ccc1OCC(F)(F)F)Nc1ccc(SC(F)F)cc1 | 3.16 µM [rising, full curve] | 14.1 µM [rising, single point]
CNCCCN1c2ccccc2CCc2ccccc21 | 8.91 µM [falling, partial curve] | 20 µM [rising, partial curve]
Cc1oc(-c2ccc(Cl)cc2)nc1CS(=O)CC(=O)N1CCN(c2cccc(C(F)(F)F)c2)CC1 (stereo not given) | 17.8 µM [falling, single point] | 17.8 µM [falling, partial curve, poor fit]
Cc1ccc(Nc2nc(=O)c3cccnc3s2)cc1 |  | 17.8 µM [rising, partial curve, poor fit]
COc1cc(/C=N/Nc2nc(Nc3ccccc3)nc(-n3nc(C)cc3C)n2)cc(OC)c1OC | 20 µM [falling, single point] | 35.5 µM [falling, single point]
Cc1ccc(CN2C(=O)N/C(=C/c3cc(C)n(-c4ccccn4)c3C)C2=O)cc1 |  | 35.5 µM [rising, single point]
O=c1cc(-c2ccccc2Cl)oc2c(NS(=O)(=O)c3cc(Cl)cc(Cl)c3O)ccc(O)c12 |  | 3.98 µM [rising, full curve]
O=C(O)C1(S(=O)(=O)CCC(F)=C(F)F)CC1 |  | 2.82 µM [falling, partial curve, poor fit]
O=C(C1COc2ccccc2O1)N1CCN(c2nc3ccc(F)cc3s2)CC1 (stereo not given) |  | 20 µM [falling, partial curve, poor fit]
NC(=O)C1CCN(C(=O)c2cccc(NC(=O)c3nsc4ccccc34)c2)CC1 | 0.631 µM [rising, full curve, poor fit] | 
O=C(O)c1cc(-n2cccc2)ccc1N1CCOCC1 | 3.98 µM [rising, single point] | 
N#Cc1nc(Cc2cccc3ccccc23)oc1NCCN1CCCCC1 |  | 35.5 µM [rising, single point]
O=C(C1COc2ccccc2O1)N(Cc1cccnc1)c1nc2ccc(Cl)cc2s1 (stereo not given) | 0.00447 µM [falling, full curve, poor fit] | 
COc1ccc(S(=O)(=O)N(C)C)cc1NC(=O)CSc1nncs1 |  | 20 µM [rising, partial curve, poor fit]
Cc1ccccc1-n1ncc2c([N+](=O)[O-])cc([N+](=O)[O-])cc21 | 35.5 µM [falling, single point] | 25.1 µM [falling, single point]
Cc1c(Cl)cccc1N=c1c([N+](=O)[O-])nn(-c2ccccc2)n1O | 12.6 µM [rising, partial curve] | 7.08 µM [rising, partial curve]
Clc1ccccc1-c1ccc2ncnc(NCCN3CCOCC3)c2c1 | 1.12 µM [falling, partial curve] | 
c1ccn2cc(CSc3nnc4ccccn34)nc2c1 |  | 0.112 µM [rising, full curve, poor fit]
CCn1ncc(C2=NOC(C(=O)Nc3ccccc3C(=O)OC)C2)c1C (stereo not given) | 20 µM [rising, single point] | 22.4 µM [rising, partial curve]
O=C1N/C(=C/c2ccc(Br)cc2)C(O)=C1C=NCc1ccccc1 |  | 5.62 µM [rising, single point]
CN(C(=O)COC(=O)c1c2c(nc3ccccc13)/C(=C/c1cccc([N+](=O)[O-])c1)CCC2)C1CCS(=O)(=O)C1 (stereo not given) | 35.5 µM [falling, single point] | 20 µM [falling, single point]
CCN1CCN(Cc2ccc(NC(=O)Nc3ccc(SC)cc3)cc2)CC1 |  | 5.62 µM [rising, partial curve, poor fit]
CCC(C)n1ncn(-c2ccc(N3CCN(c4ccc(OCC5COC(Cn6cncn6)(c6ccc(Cl)cc6Cl)O5)cc4)CC3)cc2)c1=O (stereo not given) | 35.5 nM [rising, full curve] and 1.58 µM [rising, full curve] | 4.47 µM [rising, full curve, poor fit]
CCOC(=O)C1=C(Nc2ccccc2)CC(C)(O)C(C(=O)OCC)C1c1ccc(Br)cc1 (stereo not given) | 31.6 µM [rising, single point] | 
COC(=O)c1ccc(/C=N\NC(=O)c2ccc(C)cc2Cl)cc1 | 11.2 µM [rising, partial curve] | 
COc1ccc(-c2cc(-c3nnc(COC(=O)C4CC4)o3)c3ccccc3n2)cc1OC |  | 12.6 µM [rising, single point]

3 compounds from above, sorted by formula weight, descending.
SMILES | AC50 [1] | AC50 [2]
CCC(C)n1ncn(-c2ccc(N3CCN(c4ccc(OCC5COC(Cn6cncn6)(c6ccc(Cl)cc6Cl)O5)cc4)CC3)cc2)c1=O (stereo not given) | 35.5 nM [rising, full curve] and 1.58 µM [rising, full curve] | 4.47 µM [rising, full curve, poor fit]
Cc1ccc(Nc2nc(=O)c3cccnc3s2)cc1 |  | 17.8 µM [rising, partial curve, poor fit]
O=C(O)C1(S(=O)(=O)CCC(F)=C(F)F)CC1 |  | 2.82 µM [falling, partial curve, poor fit]
